The results in this text go back to US20050118611.

Protein sequences, listed by entry. Tags and fused reporters are not part of them.
UniProt Q04206, whole entry: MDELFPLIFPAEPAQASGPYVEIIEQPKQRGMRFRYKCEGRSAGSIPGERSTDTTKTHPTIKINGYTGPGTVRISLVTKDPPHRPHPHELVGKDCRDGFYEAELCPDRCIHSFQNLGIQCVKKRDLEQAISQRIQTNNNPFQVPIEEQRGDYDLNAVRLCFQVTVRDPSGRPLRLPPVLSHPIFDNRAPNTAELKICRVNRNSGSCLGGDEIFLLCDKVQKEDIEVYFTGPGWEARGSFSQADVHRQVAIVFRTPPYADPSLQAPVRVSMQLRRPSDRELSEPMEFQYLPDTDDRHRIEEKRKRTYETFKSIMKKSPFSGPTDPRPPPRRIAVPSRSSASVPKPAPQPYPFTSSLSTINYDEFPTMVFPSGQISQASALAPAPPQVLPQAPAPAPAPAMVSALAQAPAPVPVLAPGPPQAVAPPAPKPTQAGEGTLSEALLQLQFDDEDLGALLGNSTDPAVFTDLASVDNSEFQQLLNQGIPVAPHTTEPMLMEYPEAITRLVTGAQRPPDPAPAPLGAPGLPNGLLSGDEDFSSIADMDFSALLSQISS

In data set [1] the target is T1, p105 (p50 precursor) or p50/p50, endogenous nuclear extract (UniProt P25799).
T1 sequence (looked up, limits assumed): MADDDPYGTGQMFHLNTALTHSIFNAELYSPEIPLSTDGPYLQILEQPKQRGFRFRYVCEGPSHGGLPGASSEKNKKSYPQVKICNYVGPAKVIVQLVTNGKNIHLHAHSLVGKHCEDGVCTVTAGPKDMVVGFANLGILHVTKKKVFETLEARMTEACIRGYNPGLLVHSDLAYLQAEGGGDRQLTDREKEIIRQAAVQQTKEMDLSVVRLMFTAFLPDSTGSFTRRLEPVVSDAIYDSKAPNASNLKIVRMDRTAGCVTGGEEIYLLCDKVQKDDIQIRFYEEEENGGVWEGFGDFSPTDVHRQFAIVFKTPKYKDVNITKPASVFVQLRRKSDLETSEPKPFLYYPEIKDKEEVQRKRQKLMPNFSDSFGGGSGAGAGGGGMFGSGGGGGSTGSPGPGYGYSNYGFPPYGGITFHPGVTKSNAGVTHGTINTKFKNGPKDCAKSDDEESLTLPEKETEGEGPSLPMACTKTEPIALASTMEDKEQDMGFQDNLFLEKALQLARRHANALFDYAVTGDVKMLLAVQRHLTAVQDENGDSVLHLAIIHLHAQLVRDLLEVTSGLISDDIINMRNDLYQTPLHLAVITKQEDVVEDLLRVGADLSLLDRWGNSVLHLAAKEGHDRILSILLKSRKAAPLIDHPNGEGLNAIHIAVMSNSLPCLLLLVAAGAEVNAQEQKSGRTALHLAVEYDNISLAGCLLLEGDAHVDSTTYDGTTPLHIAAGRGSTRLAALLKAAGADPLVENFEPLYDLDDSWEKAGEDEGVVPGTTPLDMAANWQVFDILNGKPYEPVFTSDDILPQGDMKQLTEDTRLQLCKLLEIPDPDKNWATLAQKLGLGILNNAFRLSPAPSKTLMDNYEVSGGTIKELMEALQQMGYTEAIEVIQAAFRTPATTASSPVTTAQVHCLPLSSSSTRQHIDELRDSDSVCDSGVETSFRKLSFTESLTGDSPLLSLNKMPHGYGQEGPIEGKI
Briefly: binding assay. Particulars: six phosphorodithioates (S2): top CCAGGAGATS2TS2CCAC, bottom 3'-GGS2TCCS2TCS2TAAGGS2TG-5'; SELDI MS capture from nuclear extract; protein in an extract; protein details: MW ~105,591 by SELDI; variant of CK-14 phosphodiester 14-mer duplex.

The subject of data set [2] is AP-1 proteins endogenous, 70Z/3 pre-B cell nuclear extract. Briefly: EMSA. Particulars: six phosphorodithioates (S2): top CCAGTS2GACTS2CAGTS2G, bottom 3'-GGS2TCACS2TGAGS2TCAC-5'; specific binding in 70Z/3 nuclear extract; protein in an extract. On the technique in general: A gel shift assay detects complexes by their altered migration in electrophoresis.
Data set [3] has as its target NF-κB p65 (RelA) homodimer (UniProt Q04206). Briefly: SELEX. The conditions noted are these: phosphorothioate (S) at all dA positions.

For part of these data: Results from cells or extracts need not show a direct contact. For part of these data: Protein sequences can lack the tags named with them. For part of these data: For at least one entry, the source does not settle the construct or the ends of the probe.

In the case of CCAGGAGATTCCAC (double strand) [XBY-6], the binding result in data set [1] was “binds”. Regarding CCAGTGACTCAGTG (double strand) [XBY-S2], the binding result in data set [2] is recorded as “binds”.

As for “GGGCGTATATGTGTGGCGGGGG (double strand) [p65 thioselected 22-mer (10 rounds)]”, in data set [3], the selection result is recorded as “selected”.
